# Test results as given in PubChem BioAssay AID540256 (National Center for Advancing Translational Sciences (NCATS), 2011).
# Screen size: about 300,000 compounds; about 3,700 (1.2%) were called active. This list was built around the results that the source calls inconclusive (neither active nor inactive); the mix of calls is not that of the screen. The call rests on the fitted dose curve; tested in HEK293 cells. Where the call is inconclusive, the potency comes from a doubtful curve fit.
# Test: qHTS for Inhibitors of binding or entry into cells for Lassa Virus; further: nearly all actives have a fitted effect of over 50% in size
# Details: Lassa virus pseudotype entry inhibition, cell reporter; series mostly up to 37.9 µM
# Potency means the concentration at half of the fitted maximal effect.
row,Structure (SMILES),Potency
1,O=C(COc1ccc(F)cc1)Nc1ccccc1C(=O)OCc1cc(=O)n2ccsc2n1,"inconclusive: 25.1 µM [activator, single point]"
2,COc1ccc(CC(C)N2CCN(c3ccccc3OC)CC2)cc1OC (configuration not stated),"inconclusive: 6.51 µM [inhibitor, single point]"
3,O=S1(=O)c2ccc(Br)cc2-n2nncc2CN1Cc1ccc(C(F)(F)F)cc1,inactive
4,COc1cc(C(=O)Nc2nc(-c3ccc(F)cc3)cs2)ccc1OCC(=O)N1CCOCC1,"inconclusive: 16.4 µM [inhibitor, single point]"
5,COc1ccccc1N(C)S(=O)(=O)c1ccc(C(=O)OCC(=O)N2CCC2)cc1,"inconclusive: 3.55 µM [inhibitor, partial curve, poor fit]"
6,Cc1ccc(S(=O)(=O)N2CCN(CC3CC4C=CC3C4)CC2)cc1 (configuration not stated),"inconclusive: 7.08 µM [inhibitor, full curve, poor fit]"
7,CCC(CC)c1nc(C#N)c(NC(C)c2ccccc2)o1 (configuration not stated),"inconclusive: 16.4 µM [inhibitor, partial curve, poor fit]"
8,COC(=O)c1cc(NC(=O)N2c3ccccc3Sc3ccccc32)cc(C(=O)OC)c1,"inconclusive: 18.3 µM [inhibitor, partial curve, poor fit]"
9,COc1ccccc1/C=C/C=N/NC(=O)c1cc(-c2ccc(C)o2)[nH]n1,"inconclusive: 35.5 µM [inhibitor, single point]"
10,Cc1ccc(C)c(N2CCN(C(=O)c3ccc4c(=O)n(CCc5ccccc5)c(=O)[nH]c4c3)CC2)c1,"inconclusive: 5.62 µM [activator, full curve, poor fit]"
11,COCCc1nn2c(=O)cc(COC(=O)c3ccccc3C)nc2s1,inactive
12,O=C(Nc1cc(-c2ccc(Cl)cc2)no1)c1ccc(F)cc1,"inconclusive: 20 µM [activator, partial curve, poor fit]"
13,COc1ccc(N2CCN(C(=O)C3CCN(S(=O)(=O)c4ccc(F)cc4)CC3)CC2)cc1,inactive
14,O=C1Nc2ccc(I)cc2/C1=C/c1cc(Br)c(O)c(Br)c1,inactive
15,O=C(Oc1ccc([N+](=O)[O-])cc1)C1CC(=O)N(c2ccc3c(c2)OCCO3)C1 (configuration not stated),inactive
16,CCOc1ccccc1C(=O)NCC(c1cccs1)S(=O)(=O)c1ccc(F)c(C)c1 (configuration not stated),inactive
17,O=C(COc1ccc(C(=O)c2ccc(F)cc2)cc1)NCc1ccc(F)cc1,"inconclusive: 0.708 µM [inhibitor, full curve, poor fit]"
18,CCc1ccc(NC(=O)CSc2nc3c(c(=O)[nH]2)CN(Cc2ccc(C)cc2)CC3)cc1,"inconclusive: 3.16 µM [activator, single point]"
19,CNC(=S)NN=C(C)CCCC(C)=NNC(=S)NC,"inconclusive: 0.447 µM [inhibitor, full curve, poor fit]"
20,O=C(CCNS(=O)(=O)c1ccc(Br)cc1)N1CCN(c2ccccc2O)CC1,inactive
21,COc1ccccc1/C=C/C=N/n1c(-c2ccccc2)n[nH]c1=S,"inconclusive: 1.78 µM [inhibitor, partial curve, poor fit]"

# Taken from above:
# CNC(=S)NN=C(C)CCCC(C)=NNC(=S)NC – Potency: inconclusive: 0.447 µM [inhibitor, full curve, poor fit]
# COc1cc(C(=O)Nc2nc(-c3ccc(F)cc3)cs2)ccc1OCC(=O)N1CCOCC1 – Potency: inconclusive: 16.4 µM [inhibitor, single point]

# Further results:

row,Structure (SMILES),Potency
1,COC(=O)c1ccc2c(=O)[nH]c(CSc3nc(-c4ccc(F)cc4)cs3)nc2c1,"inconclusive: 8.91 µM [inhibitor, partial curve, poor fit]"
2,Cc1ccccc1CCNC(=O)CCn1ccc2cc(S(=O)(=O)N3CCCC3)ccc21,"inconclusive: 35.5 µM [inhibitor, partial curve, poor fit]"
3,CN(CC(=O)Nc1c(Cl)cccc1Cl)C(=O)c1cccc(S(=O)(=O)NCc2ccccc2)c1,"inconclusive: 14.1 µM [inhibitor, single point]"
4,CN(C)c1ccc(C=NN2CCCCCC2)cc1,"inconclusive: 1.26 µM [inhibitor, partial curve, poor fit]"
5,CC(=O)[C@@H]1[C@@H](C(=O)c2ccc(F)cc2)[C@]2(C(=O)Nc3ccccc32)[C@H]2C=Cc3cc(F)ccc3N12,"inconclusive: 20 µM [inhibitor, partial curve, poor fit]"
6,COc1nnc(-c2ccc(N3CCCCC3)c(NC(=O)c3ccccc3Cl)c2)c2ccccc12,"inconclusive: 35.5 µM [inhibitor, single point]"
7,COc1ccc(Cl)cc1C(=O)NCc1nnnn1-c1ccccc1,inactive
8,COc1cc(Cl)c(C)cc1NC(=O)Cn1c2ncccc2c(=O)n1-c1ccccc1,"inconclusive: 35.5 µM [activator, single point]"
9,Cc1ccc(C)c(S(=O)(=O)N2CCN(C(=O)c3cc(S(=O)(=O)NCc4ccccc4)ccc3C)CC2)c1,"inconclusive: 7.94 µM [inhibitor, partial curve, poor fit]"
10,CCc1ccc(-n2nnc(-c3nc(-c4ccc(C)cc4)no3)c2N)cc1,inactive
11,CCOc1ccc(/C=N/Nc2ccc(C(F)(F)F)cc2[N+](=O)[O-])cc1O,"inconclusive: 20 µM [inhibitor, single point]"
12,CCOC(=O)c1nc(N)c(=O)n(-c2ccc(C)cc2)n1,inactive
13,CCOC(=O)N1CCC(NS(=O)(=O)c2ccc(NC(C)=O)c(Cl)c2)CC1,"inconclusive: 7.94 µM [inhibitor, partial curve, poor fit]"
14,CCOC(=O)c1c(C)n(-c2ccc(C)cc2)c2c(CC(C)=O)c(Br)c(OC)c(O)c12,inactive
15,Cc1cc(/C=C(/C#N)C(=O)O)c(C)n1CCC(C)C,inactive
16,COc1ccc(/C=C2\CCCC3C2=NN(C(=O)c2scnc2C)C3c2ccc(OC)cc2)cc1 (configuration not stated),active: 1.03 µM
17,COCc1cc(C)nc2c1C(=O)NC(c1ccc(Br)cc1)N2Cc1ccccc1 (configuration not stated),inactive
18,NS(=O)(=O)c1ccc(S(=O)(=O)N(Cc2ccccc2F)CC2CCCO2)cc1 (configuration not stated),inactive
19,O=C(Nc1cccc(C(F)(F)F)c1)c1cccnn1,inactive
20,COc1ccc(-n2c(SCc3ccccc3F)nc3c([nH]c4ccccc43)c2=O)cc1OC,"inconclusive: 6.31 µM [inhibitor, single point]"
21,Cc1ccc(NS(=O)(=O)c2ccc(C(=O)N3CC(C)CC(C)C3)cc2)cc1 (configuration not stated),"inconclusive: 35.5 µM [inhibitor, single point]"
